The text below walks through data of doi:10.1101/2025.05.04.652107.

Results are given in words; binding and its absence hold for the method and conditions named. In cells and extracts the contact can be indirect. A result given as binding can be weak or reduced; the word gives no strength.

The test deals with T1, Sialin/Sialin2 (NRK cells) (rat (endogenous in NRK-52E)) (UniProt Q5Q0U0).
T1 sequence: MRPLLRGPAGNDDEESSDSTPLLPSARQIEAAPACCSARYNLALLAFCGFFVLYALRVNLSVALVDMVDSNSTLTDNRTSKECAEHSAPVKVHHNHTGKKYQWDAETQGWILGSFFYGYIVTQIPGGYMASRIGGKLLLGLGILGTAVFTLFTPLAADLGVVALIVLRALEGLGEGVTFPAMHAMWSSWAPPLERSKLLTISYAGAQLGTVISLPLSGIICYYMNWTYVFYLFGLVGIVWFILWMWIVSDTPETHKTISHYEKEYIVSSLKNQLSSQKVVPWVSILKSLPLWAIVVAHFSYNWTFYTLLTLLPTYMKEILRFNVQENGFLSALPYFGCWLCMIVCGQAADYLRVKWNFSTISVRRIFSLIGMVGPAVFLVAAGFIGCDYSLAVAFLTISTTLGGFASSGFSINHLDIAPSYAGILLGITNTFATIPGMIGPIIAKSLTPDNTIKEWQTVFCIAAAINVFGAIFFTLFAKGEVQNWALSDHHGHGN
Nature of the test: proximity ligation.

As for “epidermal growth factor receptor (EGFR) (NRK cells) (rat (endogenous in NRK-52E))”, the binding entry is given as “binds”.
